The target in one experiment is T1, AMHR-II human receptor (human, UniProt Q16671 18-573, limits assumed).
T1 sequence (looked up): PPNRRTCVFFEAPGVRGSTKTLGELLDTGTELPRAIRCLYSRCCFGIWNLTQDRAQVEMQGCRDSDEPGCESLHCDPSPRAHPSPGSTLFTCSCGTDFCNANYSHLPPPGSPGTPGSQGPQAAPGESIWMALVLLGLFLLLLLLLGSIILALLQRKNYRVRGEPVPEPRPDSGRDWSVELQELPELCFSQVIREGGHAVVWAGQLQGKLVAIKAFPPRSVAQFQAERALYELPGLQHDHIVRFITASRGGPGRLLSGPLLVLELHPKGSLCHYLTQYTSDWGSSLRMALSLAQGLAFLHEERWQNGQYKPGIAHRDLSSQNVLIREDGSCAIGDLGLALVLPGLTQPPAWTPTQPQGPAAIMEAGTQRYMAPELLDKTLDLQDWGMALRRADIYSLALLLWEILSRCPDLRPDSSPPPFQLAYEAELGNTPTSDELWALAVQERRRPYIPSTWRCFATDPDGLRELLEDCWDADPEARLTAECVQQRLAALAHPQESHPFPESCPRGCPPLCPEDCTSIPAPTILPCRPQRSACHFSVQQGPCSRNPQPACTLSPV
Briefly: comment on the affinity determinations.

Experiment [1] deals with T2, AMHR-II/Fc fusion protein (human, UniProt Q16671 18-149, limits assumed).
T2 construct: also called AMHR-II recombinant receptor expressed in the form of fusion protein with a region Fc; recombinant target; not shown: Fc region
T2 sequence (looked up): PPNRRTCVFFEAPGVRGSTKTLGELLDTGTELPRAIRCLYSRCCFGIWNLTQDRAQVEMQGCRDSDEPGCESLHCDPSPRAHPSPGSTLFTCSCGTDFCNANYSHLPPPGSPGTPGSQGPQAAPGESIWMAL
Kind of experiment: ELISA with soluble Fab (FIG. 17). Background: In an ELISA, binding on a coated surface is turned into a signal by an enzyme label.

In experiment [2] the target is T2, AMHR-II/Fc fusion protein. Briefly: ELISA, soluble Fab titrated in twofold steps (5.000 to 0.078 µg/ml) on the AMHR-II receptor, OD at 450 nm.

Results are given in words; binding and its absence hold for the method and conditions named. Some binding calls cover weakened binding; strength is not graded here. For some assays here: Sequences can lack the tags named with a protein.

B1: murine 12G4 monoclonal antibody (antibody, V domains shown)
VH: QVQLQQSGPELVKPGASVRMSCKASGYTFTSYHIHWVKQRPGQGLEWIGWIYPGDDSTKYNEKFKGKTTLTADKSSSTAYMLLSSLTSEDSAIYFCTRGDRFAYWGQGTLVTVSA
VL: QIVLTQSPAIMSASLGEGITLTCSASSSVRYIHWYQQKSGTSPKLLIYSTSNLASGVPSRFSGSGSGTFHSLTISSVEAEDAADYYCLQWSSYPWTFGGGTKLEIK
notes: also called mLFB112; original murine 12G4 antibody
For B1, the binding result with AMHR-II human receptor is given as “binds”.

B2: 6B-78 soluble Fab (Fab, V domains shown)
VH: QVQLVQSGAEVKKPGASVKVSCKASGYTFTSYHIHWVRQAPGQRLEWMGWIYPGDDSTKYSQKFQGRVTITRDTSASTAYMELSSLRSEDTAVYYCTRGDRFAYWGQGTLVTVSS
VL: DIQMTQSPSTLSASVGDRVTITCRASSSVRYIAWYQQKPGKAPKLLIYSTSSLKSGVPSRFSGSGSGTEFTLTISSLQPDDFATYYCLQWSSYPWTFGGGTKVEIK
Regarding B2, the binding entry in experiment [1] and in experiment [2] was “binds” throughout.

B3: 3C-23K soluble Fab (Fab, V domains shown)
VH: QVRLVQSGAEVKKPGASVKVSCKASGYTFTSYHIHWVRQAPGQRLEWMGWIYPGDDSTKYSQKFQGRVTITRDTSASTAYMELSSLRSEDTAVYYCTRGDRFAYWGQGTLVTVSS
VL: DIQMTQSPSTLSASVGDRVTITCRASSSVRYIAWYQQKPGKAPKLLTYPTSSLKSGVPSRFSGSGSGTEFTLTISSLQPDDFATYYCLQWSSYPWTFGGGTKVEIK
Regarding B3, the binding result in experiment [1] and in experiment [2] was “binds” throughout.

B4: 3C-23 soluble Fab (Fab, V domains shown)
VH: QVRLVQSGAEVKKPGASVKVSCKASGYTFTSYHIHWVRQAPGQRLEWMGWIYPGDDSTKYSQKFQGRVTITRDTSASTAYMELSSLRSEDTAVYYCTRGDRFAYWGQGTLVTVSS
VL: DIQMTQSPSTLSASVGDRVTITCRASSSVRYIAWYQQKPGKAPKLLTYPTSSLESGVPSRFSGSGSGTEFTLTISSLQPDDFATYYCLQWSSYPWTFGGGTKVEIK
For B4, the binding entry in experiment [1] and in experiment [2] was “binds” throughout.

B5: unmutated humanized 12G4 monoclonal antibody (antibody, human IgG1, kappa, V domains shown)
VH: QVQLVQSGAEVKKPGASVKVSCKASGYTFTSYHIHWVRQAPGQRLEWMGWIYPGDDSTKYSQKFQGRVTITRDTSASTAYMELSSLRSEDTAVYYCTRGDRFAYWGQGTLVTVSS
VL: DIQMTQSPSTLSASVGDRVTITCRASSSVRYIAWYQQKPGKAPKLLIYSTSSLESGVPSRFSGSGSGTEFTLTISSLQPDDFATYYCLQWSSYPWTFGGGTKVEIKR
notes: Variable regions without leader joined to the constant regions; also called huLFB112; 632 07 107 Anti AMHRII hum 1st
On to B5, for which the binding result in the experiment with AMHR-II human receptor was “binds”.

The record behind these values is patent publication US20130136743A1 (LABORATOIRE FRANCAIS DU FRACTIONNEMENT ET DES …, published 2013).
